According to patent US10046020B2, “Inflammation inhibiting compounds” (priority 2001, dated 2018):
At least one peptide structure holds a part that was inferred or is arguable (an end, a ring closure or a residue). Square brackets hold non-standard residues; d marks the D form. Peptide text beside a SMILES is read from it.

Chains of the proteins cited; added tags and fusions are not shown. Lines headed by an entry give the natural chain unless they say otherwise; changes in a name come on top.
UniProt Q01726: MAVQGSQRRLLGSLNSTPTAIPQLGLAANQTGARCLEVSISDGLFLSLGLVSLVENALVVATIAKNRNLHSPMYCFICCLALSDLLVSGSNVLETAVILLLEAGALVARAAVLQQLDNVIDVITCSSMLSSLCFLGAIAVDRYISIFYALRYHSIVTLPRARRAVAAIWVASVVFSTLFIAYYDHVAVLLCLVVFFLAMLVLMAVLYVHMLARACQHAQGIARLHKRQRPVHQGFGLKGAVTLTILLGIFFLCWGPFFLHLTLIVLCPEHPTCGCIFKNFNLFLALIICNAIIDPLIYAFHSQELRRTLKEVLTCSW

Columns and labels:
[1] = system: Balb/C mice; assay: CHS sensitization and tolerance after i.v. injection of αMSH or peptides (DNFB); conditions: i.v. 2 hours before sensitization; 5 μg αMSH or 1.5 μg peptide (KP: 50 μg) per mouse
[2] = system: IL-10 deficient mice; assay: Colitis in piroxicam-treated IL-10-deficient mice; type: in vivo; conditions: 100 μg daily oral
[3] = system: PBMC from the blood of psoriasis patients; assay: Regulatory T cells in PBMC from blood of psoriasis patients; type: cell-based, human
[4] = system: transcription factor NF-κB; assay: NF-κB electrophoretic mobility shift assay (EMSA); type: cell-based, human; conditions: TNFα- or LPS-treated ECs, IL-1-treated HNKs
[5] = system: sensitised recipient mice (Hapten: DNFB); assay: Reinjection of CD4+ T-cells contacted with peptide-treated DC into DNFB-sensitised mice; type: in vivo; conditions: 1×10^6 cells
[6] = system: Th17 cells; assay: Th17 cells and Th17-typical parameters in CD4+ T cells of psoriasis patients; type: cell-based, human
[7] = system: BNX mice transplanted with skin from psoriatic human donors; assay: Psoriasis transplant model (human psoriatic skin on BNX mice); type: in vivo; conditions: three weeks
Protocol: Immunodeficient mice (BNX mice) were transplanted with skin from psoriatic human donors. Animals with viable transplant were injected with PBMCs from the same donor, resulting in appearance of a psoriatic phenotype within the transplant. Animals were treated as follows:
Group 1: Betamethasone, topically, 2× daily, Group 2: Vehicle, i.p. 100 μL/d, Group 3: KdPT i.p. 1 μg/d, Group 4: KdPT i.p. 10 μg/d, all treatments were kept up for three weeks.
As shown in FIGS. 25A and 25B, immunodeficient mice (BNX mice) were transplanted with skin from psoriatic donors. Animals with viable transplant were injected with PBMCs from the same donor, resulting in appearance of a psoriatic phenotype within the transplant. Animals were treated as follows:
Group 1: Vehicle, i.p. 100 μL/d, Group 2: Betamethasone, topically, 2× daily, Group 3: KdPT i.p. 10 μg/d, all treatments were kept up for three weeks.

[8] = system: CD8+-T-cells; assay: CD8+ T-cells from DNFB-sensitised, treated mice; type: in vivo; conditions: C57BL/6 mice sensitised with DNFB
[9] = target: T1, melanocortin receptor on THP-1 cells (MC-1) (Homo sapiens, UniProt Q01726); assay: Competition with biotin-labeled αMSH for binding sites on THP-1 cells (FACS); conditions: each of the tested concentrations, 10^−6 to 10^−12M
T1 construct: endogenous in cells; host or cells: THP-1 monocytic cell line (unstimulated, whole cells)
Protocol: All the steps were carried out at 0 to 4° C. The monocytic cell line THP-1 was washed once in PBS, once one acidic glycine buffer (50 mM glycine, 100 mM sodium chloride, pH 3) and three times with RPMI. The cells 2.5×10^6 per ml) were then resuspended in 100 μl of RPMI/1% BSA and transferred into 96-well microtiter plates. […] After a last washing step, the cells were resuspended in PBS. […] Dead cells were excluded by adding propidium iodide shortly before the FACS analysis.

[10] = system: C57BL/6 mice with DSS-colitis; assay: DSS-colitis, therapeutic i.p. treatment; type: in vivo
[11] = system: human PBMC; assay: IL-10 secretion by human PBMC (ELISA); type: cell-based
Protocol: Mononuclear cells (PBMC) were separated from human buffy coats by Ficoll Hypaque density gradient centrifugation. Cells (1×10^6 per ml), cultivated in RPMI 1640 with antibiotics and 10% FCS, were either not treated or stimulated with αMSH or the peptides KPV or KPT with or without IL-1β (10 U/ml). The supernatants of the PBMC cultures were collected after incubation for 24 or 48 hours and stored at −20° C. until used further. A commercially available ELISA was employed to detect IL-10.

[12] = system: C57BL/6 mice with DSS-colitis; assay: DSS-colitis, rectal application; type: in vivo
[13] = system: CD4+-T-cells; assay: CD4+ T-cells after contact with peptide-treated DC in vitro; type: cell-based
[14] = system: mice with Imiquimod-induced psoriasis-like skin inflammation; assay: Imiquimod-induced psoriasis-like disease in mice; type: in vivo; conditions: for number of regulatory CD4+CD25+Foxp3+ T cells: flow cytometry
[15] = system: CD4+CD25+Foxp3+ T-cells; assay: Suppressive effect of regulatory T cells after treatment (co-culture with effector T cells); type: cell-based, human; conditions: 48 h, 10^−9 molar; 1:1 co-culture with effector T cells
[16] = system: dendritic cells; assay: Phenotype of KdPT-treated dendritic cells; type: cell-based
[17] = system: human mast cells in the hair follicle; conditions: explanted hair follicles, IFNγ vs IFNγ and KdPT; cited from earlier work
[18] = system: Rag2-deficient mice; assay: Chronic CD45RBhigh transfer-colitis; type: in vivo
[19] = FIG. 24, KdPT i.p. 1 μg/d or 10 μg/d

## C[C@@H](O)[C@H](NC(=O)[C@H]1CCCN1C(=O)[C@@H](N)CCCCN)C(=O)O [KdPT, (L)Lys-(D)Pro-(L)Thr] (H-Lys-[dP]-Thr-OH)
[1]
  inhibition of CHS response to DNFB exposure 7 days after sensitization (auricular swelling): suppressed the CHS response most effectively
[2]; day 27
  loss of body weight: 8.4±2.9%
[2]; day 31
  histological score according to Berg et al: 4.8±1.5
[3]
  expression of Foxp3 and IL-10 in regulatory T cells: upregulated
  number of CD4+CD25+Foxp3+ T cells: significantly increased
[3]; as stated in the summary b218
  IL-10 expression by CD4+CD25+Foxp3+ T cells: less IL-10
[3]; listed as K(D)PT
  expression of IFN-γ in regulatory T cells: downregulated substantially
[4]
  activation of the transcription factor NF-κB: reduced
[4]; listed as Lys-Pro-Thr
  activation of the transcription factor NF-κB: prevents the activation
[5]
  effect of reinjected CD4+ T-cells on contact allergy: suppressive effect on contact allergy
[6]; 48 h, 10-9 molar
  number of Th17 cells in blood of psoriasis patients: reduced to the normal level of healthy individuals
[6]; realtime-PCR
  IL-17, IL-21, IL-22, IL-23 and RORc in CD4+ T cells: produced at reduced levels
[7]; [19]
  Ki67-expression: Significant reduction
  epidermal thickness: Clear reduction
[7]; FIG. 25A, KdPT i.p. 10 μg/d
  Ki67-expression: clear reduction
  epidermal thickness: clear reduction
[8]
  expression of IL-10 by CD8+ T-cells: clearly enhanced expression
  proliferation of CD8+ T-cells from treated animals: proliferated more slowly
  secretion of IL-4 by CD8+ T-cells: suppressed secretion
  secretion of Th1-type cytokines by CD8+ T-cells: lower amounts
[9]
  inhibition of αMSH binding: significant inhibition
[10]; 10 μg i.p.
  inflammatory score (histology of colonic tissue): 7.25±4.42
  mucosal expression of IL-1β mRNA: 4.14±1.2 fold induction
  mucosal expression of IL-1β mRNA lower than in PBS-treated mice: 65%
[10]; day 9, 10 μg i.p. from day 4 of DSS
  maximum weight loss: 11.6%±4.4%
[10]; day 12 after DSS-start, 10 μg i.p.
  regained weight, of initial weight: 97.2%±0.26%
[11]; 24 hours, αMSH 10^−11 M, KPV and KPT 10^−8 to 10^−9M
  IL-10 production: evidently induced IL-10 production
[11]; 48 hours
  production of IL-10: significantly increased
[12]; end of the observation period, rectal
  body weight of the initial weight: 98.7%±2.7
[12]; rectal
  inflammatory score, distal colon third: 12.4±1.83
[12]; rectal 10 μg from one day prior to DSS
  maximum weight loss: 14.8%±2.6
[12]; rectal, p<0.002
  mucosal expression of IL-1β mRNA in the distal third of the colon: reduced significantly
[13]
  effect of co-cultured CD4+ T-cells on proliferation of CD4+CD25− responder T-cells: suppressive effect on the proliferation
  regulatory markers in CD4+ T-cells after treatment with treated dendritic cells: elevated levels of regulatory markers
[14]
  number of regulatory CD4+CD25+Foxp3+ T cells: significant increase
[14]; listed as K(D)PT
  number of regulatory CD4+CD25+Foxp3+ T cells: increased numbers
[14]; mouse, in vivo
  epidermal thickness (histology): clearly reduced
  potency compared with an anti-TNFα-antibody: roughly equipotent
  skin reddening and -scaling: clearly reduced
[14]; qRT-PCR
  IFNγ and TNFα expression: suppressed
  IL-10 expression: significant upregulation
  expression of regulatory T cells markers: increased expression
[14]; quantitative RT-PCR
  expression of Th17 markers: Reduced Expression
[15]
  suppressive properties of regulatory T cells from blood of psoriasis patients: substantial suppressive properties
[16]
  CD205, IL-6 and IL-10 in treated DC: elevated levels
  expression of CD80, CD86 and MHC class II on treated DC: downregulated
[17]
  number of mast cells and degranulated mast cells in IFNγ stimulated hair follicles: more degranulated mast cells can be found than in hair follicles which have been stimulated with IFNγ and KdPT
[18]; end of the experiment, 10 μg i.p. daily from day 23 after cell transfer
  regained body weight, of initial body weight: 99.3%±1.9
[18]; from day 31 after cell transfer until the end, p<0.05
  weight compared with PBS group: significantly higher weight
[18]; mouse, in vivo
  histological analysis, inflammatory activity: significantly higher inflammatory activity in control group animals
